The values that follow come from US20230102344A1.

This assay has as its target TCRvβ 6-5 expressed on cells (TCRvβ 6-5+ Jurkat cells; human T cells) (human). Put plainly: flow cytometry on TCRvβ 6-5+ Jurkat cells, detection with anti-human Fc-AF647. In general terms: A flow cytometer gives signals particle by particle.

These are yes or no findings as the source states them, for the method shown. Binding can be weak; no strength is given.

B1: BJM0387 (bispecific antibody, not shown: a dimerising Fc or GST; large carriers)
heavy: QVQLVQSGAEVKKPGSSVKVSCKASGYSFTTYYIHWVRQAPGQGLEWMGWFFPGSGNIKYNEKFKGRVTITADTSTSTAYMELSSLRSEDTAVYYCAGSYYSYDVLDYWGQGTTVTVSSGGGGSGGGGSGGGGSGGGGSDIQMTQSPSFLSASVGDRVTITCKASQNVGINVVWHQQKPGKAPKALIYSSSHRYSGVPSRFSGSGSGTEFTLTISSLQPEDFATYFCQQFKSYPLTFGQGTKLEIKGGGGSQVQLVQSGAEVKKPGSSVKVSCKASGYTFTDYNMHWVRQAPGQGLEWIGYIYPYNGGTGYNQKFKSKATITADESTNTAYMELSSLRSEDTAVYYCARGRPAMDYWGQGTLVTVSS
light: DIQMTQSPSSLSASVGDRVTITCRASESVDNYGISFMNWFQQKPGKAPKLLIYAASNQGSGVPSRFSGSGSGTDFTLTISSLQPDDFATYYCQQSKEVPWTFGQGTKVEIK
As to B1, the binding result is on record as “binds”.
